# Primary screen of a compound library

The filed quantity is “Percent Effect” (%). The record does not define 0% and 100%; most values in the screen are far below 50% and negative numbers occur (in some assays of this library far below -100). Compounds were drawn at random from those tested, without regard to their results.

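Whole-parasite assay of Trypanosoma brucei over 72 hours; the read-out is not stated. Compounds at 10 µM. Direction is inferred from retests: higher values go with stronger inhibition. Values scatter widely below zero; nearly all retest evidence comes from the higher of the two concentrations used. Of about 2,700 compounds tested this way, about 14 (0.51%) reached 50% or more in at least one test.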

structure,Percent Effect
Brc1cccc(-c2nnc(CNCCn3cccn3)o2)c1,1.788%
Cn1cc(C2CCCN2Cc2cscn2)cn1 (stereo unspecified),-64.42%
CCc1cc(CNC(=O)N2CCC(Cc3cnn(C)c3)C2)on1 (stereo unspecified),-76.55%
Cc1cnn(CC2CCCN2C(=O)c2cn(C)c3ccccc23)c1 (stereo unspecified),-33.63%
CCN(Cc1ccc2c(c1)OCO2)Cc1nc2c(cnn2C)c(=O)[nH]1,-32.53%
CCn1ccnc1CN1CCN(CC(=O)NC2CCOCC2)CC1,-10.52%
COCc1nc(C(=O)N2CCCC(n3ccnc3)C2)cs1 (stereo unspecified),-39.83%
COCCN1CC(C(=O)NCc2cccnc2-n2cccn2)CC1=O (stereo unspecified),-56.52%
COc1ccnc(N2CCN(C(=O)Cc3csc(C)n3)CC2)n1,-52.23%
CC(O)CN1CCN(C(=O)Cc2ccccc2Cl)CC1 (stereo unspecified),-35.96%
CN(C)CCN1CCN(C(=O)c2ccn(C)c(=O)c2)CC1,-16.17%
CC(NC(=O)NCc1cc(Br)cs1)c1ccccn1 (stereo unspecified),-58.94%
Cc1ccccc1OCCN1CCN(Cc2cnn(CCO)c2)CC1,-24.74%
O=C(c1ccc2c(c1)OCCO2)N1CCCC(n2ccnc2)C1 (stereo unspecified),-6.336%
CCOc1ccc(C(=O)N2CCCC(n3ccnc3C)C2)cc1OC (stereo unspecified),-36.57%
Cc1cnc(CN2CCCC(c3cc(C)[nH]n3)C2)cn1 (stereo unspecified),-17.6%
OCC1CCCN1c1cc(NCc2cccs2)ncn1 (stereo unspecified),-30.15%
CN(C)c1cc(CNC(=O)c2cccnc2O)ccn1,-67.3%
c1coc(-c2nnc(CN3CCCC3Cn3cncn3)o2)c1 (stereo unspecified),-19.48%
Cc1nn(C)c(C)c1C1CCCN1C(=O)c1ccc(C(N)=O)cn1 (stereo unspecified),-78.44%
CC(C)N(Cc1ccccn1)S(=O)(=O)N1CCCC1c1ccco1 (stereo unspecified),-85.21%
COC(=O)CC(NC(=O)c1ccccc1OC)c1cccs1 (stereo unspecified),-31.62%
CCCc1n[nH]c(C2CN(CCS(=O)(=O)CC)CCO2)n1 (stereo unspecified),-11.71%
Cc1nn(C)c(C)c1C1CCCN1C(=O)CCNS(C)(=O)=O (stereo unspecified),-41.58%
O=C(NCCC(=O)N1CCCc2ccccc21)c1c(F)cccc1F,-39.77%
Cn1cc(C2CCCN2Cc2csc(-c3ccccc3)n2)cn1 (stereo unspecified),-15.89%
O=C(Cc1ccccc1F)N1CCN(Cc2noc(C3CC3)n2)CC1,-25.84%
c1ncc2c(n1)CN(Cc1nc(-c3ccoc3)no1)CC2,-30.59%
Cn1cnc2c1CCN(Cc1cccc(C(=O)N3CCCCC3)c1)C2,-54.31%
CCc1ncncc1C(=O)NC1CCc2nc(C)cn2C1 (stereo unspecified),-58.07%
CCC(C)NC(=O)c1cc(Br)c2c(c1)OCCO2 (stereo unspecified),-25.16%
Cc1nc(C2CCCN2C(=O)CCCn2cccn2)no1 (stereo unspecified),-29.36%
O=C(CNc1cc(F)ccc1OCC1CCCO1)N1CCOCC1 (stereo unspecified),-16.67%
Cc1cnn(C2CCCN(C(=O)Cc3ccc(C#N)cc3)C2)c1 (stereo unspecified),-12.45%
CCN(Cc1nc2c(cnn2C)c(=O)[nH]1)c1ccccc1,-37.23%
CCCc1n[nH]c(C2CN(CCCS(=O)(=O)N(C)C)CCO2)n1 (stereo unspecified),-12.75%
CCc1nc(CN(C)C2CCN(CCCOc3ccccc3)C2)no1 (stereo unspecified),-30.92%
CC(C)NC(=O)N(C)C(c1cccc(F)c1)c1ccccn1 (stereo unspecified),-40.79%
O=C(O)CC(NC(=O)c1ccccc1OC(F)F)c1cccs1 (stereo unspecified),-11.39%
COc1ccccc1CC(=O)NS(=O)(=O)c1ccc(NC(C)=O)cc1,-38.98%
CC(=O)N(Cc1ncc(C)o1)C1CCN(Cc2ccccc2F)C1 (stereo unspecified),-35.98%
CC1CN(Cc2ccc(-n3cccn3)cc2)CCO1 (stereo unspecified),-11.82%
COc1ccccc1C(=O)N1CCN(C(=O)Cc2ccccn2)CC1,-26.6%
CNc1nc(CNC(=O)Nc2cccc(-n3ccc(C)n3)c2)cs1,-19.36%
CC1CN(CC(=O)NCc2ccccc2)CCN1Cc1nccn1C (stereo unspecified),-48.08%
CS(=O)(=O)NCCCN1CCCC1c1ccsc1 (stereo unspecified),-66.49%
O=C(NCCn1ccnc1)N1CCCN(Cc2cccs2)CC1,-28.63%

The first 4 entries again:

structure,Percent Effect
Brc1cccc(-c2nnc(CNCCn3cccn3)o2)c1,1.788%
Cn1cc(C2CCCN2Cc2cscn2)cn1 (stereo unspecified),-64.42%
CCc1cc(CNC(=O)N2CCC(Cc3cnn(C)c3)C2)on1 (stereo unspecified),-76.55%
Cc1cnn(CC2CCCN2C(=O)c2cn(C)c3ccccc23)c1 (stereo unspecified),-33.63%

Source: ChEMBL document CHEMBL3988442, “University of Dundee, Small-Polar-MMV Screening Library” (2021).